PubChem BioAssay AID1259308 | NCATS | 2017

Purpose: 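Knock-downs that increase output of a recombinant reporter protein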 (primary screen)
System: human HEK293 embryonic kidney cells stably expressing firefly luciferase (HEK-CMV-Luc2-Hygro)
Reagent: single siRNA against human genes, 0.8 pmol siRNA per well
Time to read-out: 72 h
Read-out: 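Reporter luminescence and viable-cell signal on separate replicate plates, given as percent of non-targeting control and median/MAD z-scores, plus per-cell luciferase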
Reading the numbers: total luciferase, z-score: higher = more reporter protein produced
Active means: 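Active when the median/MAD z-score for overall luciferase is greater than 3; a gene was taken forward for validation with new siRNAs if at least two of its three siRNAs passed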
Calls: active = raised luciferase; inactive = no rise
This is one part, drawn at random, of about 59,000 reagents tested. About 1,510 of all reagents (2.6%) count as active. 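Calls use total luciferase alone and ignore viability, so some active siRNAs may act by altering cell number.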 Unmarked entries are inactive. The numbers tell different reagents against one gene apart. Further read-outs or replicates are left out here.

Depletion of MCM3AP #1 came out at: total luciferase, z-score -0.911. MCM3AP #2 showed total luciferase, z-score 0.194. Depletion of MCM3AP #3 came out at: total luciferase, z-score 1.57. SLC35A3 #1 scored total luciferase, z-score -0.597. Against SLC35A3 #2, the values are total luciferase, z-score 0.0826. Against SLC35A3 #3 the deposit lists total luciferase, z-score 0.502.

With knock-down of EFCAB14 #1 the results were total luciferase, z-score 0.01. Against EFCAB14 #2, the entry reads total luciferase, z-score 0.127. For EFCAB14 #3, the entry reads total luciferase, z-score -1.19. For AHSA1 #1, the values are total luciferase, z-score 0.643. After knock-down of AHSA1 #2, the record shows total luciferase, z-score -1.66. With knock-down of AHSA1 #3, the record shows total luciferase, z-score -1.27.

GATA4 #1 scored total luciferase, z-score -0.343. GATA4 #2 gave total luciferase, z-score -0.231. Depletion of GATA4 #3 resulted in: total luciferase, z-score 1.7. ORC2 #1 gave total luciferase, z-score -0.0931. With knock-down of ORC2 #2, the screen gave total luciferase, z-score 1.83. For ORC2 #3, the entry reads total luciferase, z-score -1.01.

H2AC12 #1 gave total luciferase, z-score -0.308. With knock-down of H2AC12 #2, the screen gave total luciferase, z-score 2.25. After knock-down of H2AC12 #3 the results were total luciferase, z-score -0.782. Against BRDT #1 the deposit lists total luciferase, z-score 0.979. Knock-down of BRDT #2 gave: total luciferase, z-score -2.04. After knock-down of BRDT #3, the screen gave total luciferase, z-score 0.597.

C1QTNF9 #1 showed total luciferase, z-score 0.132. C1QTNF9 #2 gave total luciferase, z-score 1.22. After knock-down of C1QTNF9 #3, the record shows total luciferase, z-score -0.688. With knock-down of KCNK10 #1, the screen gave total luciferase, z-score 1.64. KCNK10 #2 gave total luciferase, z-score -0.403. With knock-down of KCNK10 #3 the results were total luciferase, z-score -1.04.

STATH #1 gave total luciferase, z-score -0.259. Against STATH #2, the entry reads total luciferase, z-score -1.17. With knock-down of STATH #3 the results were total luciferase, z-score -0.0648.

No new results follow: entries from further up.
AHSA1 #3 — total luciferase, z-score = -1.27
GATA4 #1 — total luciferase, z-score = -0.343
GATA4 #2 — total luciferase, z-score = -0.231
GATA4 #3 — total luciferase, z-score = 1.7
ORC2 #1 — total luciferase, z-score = -0.0931
